From publication PMC3741172
Results are given in words; binding and its absence hold for the method and conditions named. Binding seen in cells or lysates may run through a third protein. Some binding calls cover weakened binding; strength is not graded here.

Amino acid sequences for entries named in this document (tags omitted). Residues count along the entry.
UniProt Q924X6, residues 29-996: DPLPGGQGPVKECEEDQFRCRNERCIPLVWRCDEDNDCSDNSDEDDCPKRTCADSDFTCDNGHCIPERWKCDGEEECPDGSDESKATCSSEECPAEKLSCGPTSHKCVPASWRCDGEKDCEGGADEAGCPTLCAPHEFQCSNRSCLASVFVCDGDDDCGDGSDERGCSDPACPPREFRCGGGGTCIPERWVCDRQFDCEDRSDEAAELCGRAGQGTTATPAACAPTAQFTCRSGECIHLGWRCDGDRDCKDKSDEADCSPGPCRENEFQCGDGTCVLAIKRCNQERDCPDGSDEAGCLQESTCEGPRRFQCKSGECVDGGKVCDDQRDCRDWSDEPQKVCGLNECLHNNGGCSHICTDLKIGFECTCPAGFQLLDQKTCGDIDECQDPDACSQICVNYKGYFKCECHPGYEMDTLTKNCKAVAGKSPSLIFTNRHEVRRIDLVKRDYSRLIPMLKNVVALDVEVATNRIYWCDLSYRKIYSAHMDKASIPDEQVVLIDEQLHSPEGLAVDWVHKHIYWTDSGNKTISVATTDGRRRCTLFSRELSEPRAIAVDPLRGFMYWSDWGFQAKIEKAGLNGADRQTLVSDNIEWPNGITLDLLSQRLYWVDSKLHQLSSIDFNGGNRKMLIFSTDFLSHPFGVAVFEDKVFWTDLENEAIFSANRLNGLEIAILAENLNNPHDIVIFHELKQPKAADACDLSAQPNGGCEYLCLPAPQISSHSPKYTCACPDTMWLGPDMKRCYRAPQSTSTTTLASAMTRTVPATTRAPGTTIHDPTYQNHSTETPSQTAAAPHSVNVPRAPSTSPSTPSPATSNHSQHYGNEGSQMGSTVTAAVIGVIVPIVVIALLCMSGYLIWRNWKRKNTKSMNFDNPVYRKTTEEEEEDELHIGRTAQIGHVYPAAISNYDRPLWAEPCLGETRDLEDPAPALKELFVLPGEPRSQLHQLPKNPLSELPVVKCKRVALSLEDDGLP
UniProt P78509, residues 26-3460: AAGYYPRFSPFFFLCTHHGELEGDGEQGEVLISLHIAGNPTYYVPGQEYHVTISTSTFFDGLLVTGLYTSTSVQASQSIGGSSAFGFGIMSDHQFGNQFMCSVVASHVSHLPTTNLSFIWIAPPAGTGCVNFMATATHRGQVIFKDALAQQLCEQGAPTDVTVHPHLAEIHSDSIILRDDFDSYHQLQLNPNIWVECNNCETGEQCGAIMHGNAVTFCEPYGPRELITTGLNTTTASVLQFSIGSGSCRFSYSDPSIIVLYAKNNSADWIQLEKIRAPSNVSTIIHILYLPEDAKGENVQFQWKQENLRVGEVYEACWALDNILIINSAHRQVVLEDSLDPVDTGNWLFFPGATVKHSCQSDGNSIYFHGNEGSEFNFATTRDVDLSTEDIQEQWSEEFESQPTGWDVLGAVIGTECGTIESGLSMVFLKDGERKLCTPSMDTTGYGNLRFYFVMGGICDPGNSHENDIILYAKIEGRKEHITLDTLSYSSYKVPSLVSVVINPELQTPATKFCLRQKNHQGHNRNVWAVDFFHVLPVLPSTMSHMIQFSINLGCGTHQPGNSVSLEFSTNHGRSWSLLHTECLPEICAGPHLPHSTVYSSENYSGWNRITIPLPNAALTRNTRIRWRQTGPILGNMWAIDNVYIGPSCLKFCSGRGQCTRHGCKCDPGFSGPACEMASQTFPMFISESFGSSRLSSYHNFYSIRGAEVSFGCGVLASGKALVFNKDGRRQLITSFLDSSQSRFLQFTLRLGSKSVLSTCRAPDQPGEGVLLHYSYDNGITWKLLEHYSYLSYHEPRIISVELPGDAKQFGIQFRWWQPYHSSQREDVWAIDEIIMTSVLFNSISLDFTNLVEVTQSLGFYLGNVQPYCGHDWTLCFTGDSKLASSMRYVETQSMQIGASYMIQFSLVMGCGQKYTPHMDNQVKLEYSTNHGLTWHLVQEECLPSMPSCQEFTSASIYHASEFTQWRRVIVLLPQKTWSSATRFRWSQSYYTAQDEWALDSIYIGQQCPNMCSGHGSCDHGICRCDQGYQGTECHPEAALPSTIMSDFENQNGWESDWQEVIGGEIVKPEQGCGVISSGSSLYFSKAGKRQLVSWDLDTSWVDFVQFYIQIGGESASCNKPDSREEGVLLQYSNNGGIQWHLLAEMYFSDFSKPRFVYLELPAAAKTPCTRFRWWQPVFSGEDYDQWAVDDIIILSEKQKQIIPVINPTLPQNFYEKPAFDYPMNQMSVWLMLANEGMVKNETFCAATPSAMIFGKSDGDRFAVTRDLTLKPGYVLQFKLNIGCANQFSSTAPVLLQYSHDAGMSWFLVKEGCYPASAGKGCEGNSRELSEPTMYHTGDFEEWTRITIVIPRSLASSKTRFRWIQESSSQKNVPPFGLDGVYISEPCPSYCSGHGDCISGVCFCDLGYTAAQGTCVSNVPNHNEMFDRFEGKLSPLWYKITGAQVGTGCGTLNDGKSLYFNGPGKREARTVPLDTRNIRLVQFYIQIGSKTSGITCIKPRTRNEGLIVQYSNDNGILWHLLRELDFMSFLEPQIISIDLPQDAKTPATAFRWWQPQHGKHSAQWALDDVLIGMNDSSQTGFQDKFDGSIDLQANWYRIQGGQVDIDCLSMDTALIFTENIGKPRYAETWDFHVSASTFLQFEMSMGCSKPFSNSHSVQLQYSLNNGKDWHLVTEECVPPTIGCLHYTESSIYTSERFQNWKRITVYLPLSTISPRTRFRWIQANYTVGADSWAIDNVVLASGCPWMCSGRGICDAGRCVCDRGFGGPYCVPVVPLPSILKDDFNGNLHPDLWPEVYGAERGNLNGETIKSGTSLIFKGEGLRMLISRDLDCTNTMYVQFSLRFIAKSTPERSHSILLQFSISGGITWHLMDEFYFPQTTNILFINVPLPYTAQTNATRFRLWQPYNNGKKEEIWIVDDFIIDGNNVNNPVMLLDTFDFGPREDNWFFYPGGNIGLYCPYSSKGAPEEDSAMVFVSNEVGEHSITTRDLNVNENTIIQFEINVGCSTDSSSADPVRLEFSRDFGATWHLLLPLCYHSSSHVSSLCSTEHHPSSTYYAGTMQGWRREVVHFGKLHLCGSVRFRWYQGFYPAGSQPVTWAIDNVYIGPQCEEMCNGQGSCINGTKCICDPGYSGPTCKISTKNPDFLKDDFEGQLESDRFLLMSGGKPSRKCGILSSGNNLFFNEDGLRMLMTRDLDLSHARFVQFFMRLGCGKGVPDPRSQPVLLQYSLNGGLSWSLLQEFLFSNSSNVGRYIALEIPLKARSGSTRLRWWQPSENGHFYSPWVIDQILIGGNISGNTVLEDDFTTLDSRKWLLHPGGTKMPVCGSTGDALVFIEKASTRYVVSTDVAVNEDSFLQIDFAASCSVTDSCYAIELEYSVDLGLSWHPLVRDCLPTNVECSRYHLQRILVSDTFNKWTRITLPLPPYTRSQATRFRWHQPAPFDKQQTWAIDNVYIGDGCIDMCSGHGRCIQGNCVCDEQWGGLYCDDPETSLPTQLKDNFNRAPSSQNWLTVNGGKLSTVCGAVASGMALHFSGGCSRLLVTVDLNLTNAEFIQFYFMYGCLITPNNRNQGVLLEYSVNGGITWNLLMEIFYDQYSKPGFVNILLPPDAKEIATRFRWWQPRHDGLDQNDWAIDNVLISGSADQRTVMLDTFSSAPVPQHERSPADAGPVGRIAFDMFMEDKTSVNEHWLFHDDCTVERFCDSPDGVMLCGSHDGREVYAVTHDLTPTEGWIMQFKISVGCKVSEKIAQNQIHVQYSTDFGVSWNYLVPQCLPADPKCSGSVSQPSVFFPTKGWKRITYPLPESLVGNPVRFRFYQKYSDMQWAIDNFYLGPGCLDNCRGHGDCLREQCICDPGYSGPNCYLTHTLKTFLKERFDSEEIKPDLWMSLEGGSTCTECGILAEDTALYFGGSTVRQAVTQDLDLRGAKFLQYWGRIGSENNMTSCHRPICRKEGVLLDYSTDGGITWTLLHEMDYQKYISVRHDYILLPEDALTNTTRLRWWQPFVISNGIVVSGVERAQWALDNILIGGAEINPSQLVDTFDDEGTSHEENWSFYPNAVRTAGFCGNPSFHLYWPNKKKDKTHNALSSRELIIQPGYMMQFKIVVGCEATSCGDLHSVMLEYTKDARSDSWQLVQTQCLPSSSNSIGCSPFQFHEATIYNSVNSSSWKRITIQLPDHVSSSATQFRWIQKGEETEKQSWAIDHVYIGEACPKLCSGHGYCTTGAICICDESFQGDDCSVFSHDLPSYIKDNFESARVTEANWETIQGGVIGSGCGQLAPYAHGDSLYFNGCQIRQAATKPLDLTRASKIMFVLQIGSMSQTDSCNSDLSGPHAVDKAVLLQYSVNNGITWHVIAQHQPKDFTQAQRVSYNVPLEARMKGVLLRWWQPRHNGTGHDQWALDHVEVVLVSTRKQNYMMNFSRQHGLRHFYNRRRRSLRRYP

Molecular target: full-length mouse ApoER2 tagged with EGFP (mouse) (UniProt Q924X6)
Test: pull-down; ApoER2-GFP from HEK-293 extracts immobilised on anti-GFP Sepharose (4 h), incubated overnight with Reelin-enriched SH-SY5Y supernatants; bound and unbound fractions blotted for Reelin

For “Cont-Reelin (secreted Reelin from untransfected SH-SY5Y cells treated without Aβ42) (from UniProt P78509 26-3460)”, the binding was “binds”.
